PubChem BioAssay AID2685 (National Center for Advancing Translational Sciences (NCATS), 2010)
The list shows a part of the results. Shown are side measurements of this screen, not its main read-out; they come without a call. Compounds called inactive in the main read-out are mostly missing here. Potencies come from curve fits of mixed quality, noted in brackets.

Experiment: qHTS Assay for Lipid Storage Modulators in Drosophila S3 Cells;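 on cell number change: cells counted by Cell Tracker Red CMTPX staining in the red channel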
Settings: BODIPY lipid droplet fluorescence, 18-24 h; for cell number change: measured here: cell count max response, cells fed with added oleic acid
Method in brief: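 Drosophila S3 cells loaded with oleic acid (400 uM, as added) and compounds at several concentrations; lipid droplets imaged by 488-nm laser-scanning cytometry, 500–530 nm intensity and object ratio to cell channel. Percent activity normalized to 20 uM Triacsin C.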

[1] = measured here: cell number channel AC50, cells fed with added oleic acid
[2] = measured here: lipid fluorescence (Fed channel) AC50, cells fed with added oleic acid

Row | SMILES | cell number change [%] | AC50 [1] | AC50 [2]
1 | COC(=O)c1cc(OC)c(OC)cc1NC(=O)Nc1ccccc1F | -0.468 | 1.03 µM [falling, partial curve] | 6.51 µM [falling, partial curve]
2 | O=C(COC(=O)c1cccc(C(=O)OCC(=O)NC2CC2)n1)NC1CC1 | 87 | 18.4 µM [rising, single point] | 
3 | O=C(NCc1cccs1)c1cc(-c2ccccn2)nc2ccc(Br)cc12 | -3.38 | 0.146 µM [falling, full curve, poor fit] | 0.146 µM [falling, full curve, poor fit]
4 | Oc1[nH]c2ccccc2c1N=Nc1cccc(Cl)c1 | -29.8 |  | 8.2 µM [falling, partial curve]
5 | Cc1ccc(C(=O)OCC(=O)Nc2ncc(Cl)cc2Cl)cc1NC(=O)c1ccco1 | 174 | 29.1 µM [rising, single point] | 
6 | CCOc1ccc(NC(=S)NCc2ccc3[nH]c(C)cc3c2)cc1 | 7.2 | 4.61 µM [rising, single point] | 
7 | Cn1c(SCc2ccccn2)nc2c1c(=O)[nH]c(=O)n2C |  |  | 5.17 µM [falling, partial curve]
8 | COc1ccc(NC(=O)c2ccc(-n3cnnn3)cc2)c([N+](=O)[O-])c1 | 42.6 | 4.61 µM [rising, full curve] | 
9 | Cn1ncc(Cl)c1C(=O)N1CCN(C(=O)c2ccco2)CC1 | 14.6 |  | 6.51 µM [rising, single point]
10 | S=c1[nH]nc(-c2cc(-c3ccccc3)n[nH]2)n1/N=C/c1cccc(Cl)c1 | -23 |  | 25.9 µM [falling, single point]
11 | CN(C(=O)COC(=O)c1c2c(nc3ccccc13)CCCC2)c1c(N)n(Cc2ccccc2)c(=O)[nH]c1=O | 57.5 | 10.3 µM [rising, partial curve] | 
12 | CC(NC(=O)NCc1cccnc1)(C(F)(F)F)C(F)(F)F | -14.1 |  | 0.00461 µM [falling, full curve]
13 | O=C(NCCCO)c1ccc(CSc2nc3ccccc3c(=O)[nH]2)cc1 | 1.59 |  | 
14 | Cc1nn(C)c(C)c1NC(=O)c1cnn2c(C(F)F)cc(-c3ccccc3)nc12 | 5.56 |  | 
15 | COc1ccc(CC(=O)Nc2ccc(-c3noc(COc4ccccc4C)n3)cc2)cc1 | -32.7 | 13 µM [falling, partial curve] | 14.6 µM [falling, partial curve]
16 | CC(=O)Nc1nc(C)c(-c2csc(Nc3cccc([N+](=O)[O-])c3)n2)s1 |  |  | 0.58 µM [rising, full curve]
17 | O=C(c1cccc(S(=O)(=O)N2CCc3ccccc32)c1)N1CCCC(C(F)(F)F)C1 (configuration not stated) | 6.81 |  | 14.6 µM [rising, partial curve]
18 | Cc1ccc(NC(=O)c2nc[nH]c2C(=O)N[C@@H](CCCCNC(=O)OC(C)(C)C)C(=O)OC(C)(C)C)cc1 | 9.09 |  | 2.59 µM [rising, full curve]
19 | COc1cccc(Nc2ncnc3sccc23)c1 | 21.4 |  | 2.31 µM [falling, full curve, poor fit]
20 | O=C1C2C3C=CC(CC3)C2C(=O)N1/N=C/c1c[nH]c2ccccc12 (configuration not stated) |  |  | 0.13 µM [rising, full curve, poor fit]

Among those listed so far, four contain a Cl atom.
Row | SMILES | cell number change [%] | AC50 [1] | AC50 [2]
4 | Oc1[nH]c2ccccc2c1N=Nc1cccc(Cl)c1 | -29.8 |  | 8.2 µM [falling, partial curve]
5 | Cc1ccc(C(=O)OCC(=O)Nc2ncc(Cl)cc2Cl)cc1NC(=O)c1ccco1 | 174 | 29.1 µM [rising, single point] | 
9 | Cn1ncc(Cl)c1C(=O)N1CCN(C(=O)c2ccco2)CC1 | 14.6 |  | 6.51 µM [rising, single point]
10 | S=c1[nH]nc(-c2cc(-c3ccccc3)n[nH]2)n1/N=C/c1cccc(Cl)c1 | -23 |  | 25.9 µM [falling, single point]

Further results.

Row | SMILES | cell number change [%] | AC50 [1] | AC50 [2]
21 | O=C(COC(=O)/C=C/c1cccc(Cl)c1)NC(=O)NCc1ccccc1 | -38.5 | 16.4 µM [falling, single point] | 0.146 µM [falling, full curve, poor fit]
22 | CC(=O)Nc1ccc(S(=O)(=O)Nc2nc3n(n2)C(c2ccccc2)CC(=O)N3)cc1 (configuration not stated) | -29.7 | 1.16 µM [falling, full curve, poor fit] | 3.26 µM [falling, full curve]
23 | O=C(CSCc1ccc(Cl)cc1Cl)Nc1ccc(O)cc1C(=O)O | 20.4 |  | 29.1 µM [rising, single point]
24 | COCCn1c(=S)[nH]c2cc(C(=O)N(CCO)Cc3ccccc3)ccc2c1=O | -30.9 | 5.8 µM [falling, partial curve] | 
25 | CC(C)CNC(=O)COC(=O)c1ccccc1OCC(=O)Nc1ccc(Br)cc1 | 5.22 |  | 0.58 µM [rising, full curve, poor fit]
26 | COC(=O)[C@H](CCSC)NC(=O)Nc1ccc(C)cc1 | 2.05 |  | 
27 | OC1(C#CCCN2CCCCC2)c2ccccc2-c2ccccc21 | 2.13 | 6.51 µM [falling, single point] | 0.0259 µM [rising, full curve, poor fit]
28 | CSc1ccccc1C(=O)N1CCc2ccccc2C1 | -3.28 |  | 0.116 µM [falling, partial curve, poor fit]
29 | CCOC(=O)CCCCCN1C(=O)c2cccc3cccc(c23)C1=O | 1.66 |  | 6.51 µM [falling, single point]
30 | O=C(NN1CCOCC1)c1cc(-c2ccc(Cl)c(Cl)c2)nc2ccccc12 | 11.8 |  | 1.64 µM [rising, partial curve]
31 | CN(C)c1ccc(N=Nc2ccccc2C(=O)OCC(=O)Nc2ccccc2C(F)(F)F)cc1 | -82.4 | 29.1 µM [falling, single point] | 2.59 µM [rising, partial curve]
32 | COc1ccccc1CNC(=O)CCCc1nnc2n(C)c(=O)c3sccc3n12 |  |  | 1.64 µM [falling, partial curve, poor fit]
33 | Cc1nc2c(cc(Oc3ccc(S(=O)(=O)N4CCOCC4)cn3)c3ccsc32)s1 | -9.31 |  | 
34 | COCc1nnc(NC(=O)COc2ccc3c(c2)OCO3)s1 | 0.855 |  | 2.06 µM [rising, single point]
35 | CCCc1cc(=O)n2nc(N3CCC(C(=O)Nc4c(F)c(F)c(F)c(F)c4F)CC3)sc2n1 | 22.8 |  | 25.9 µM [rising, single point]
36 | CC(=O)c1ccc(N2CCN(S(=O)(=O)c3ccc(-c4cnc(C5CC5)o4)cc3)CC2)cc1 |  |  | 29.1 µM [rising, single point]
37 | COc1ccc(/C=N/Nc2nc(N3CCCC3)nc(N3CCCC3)n2)cc1O | -13.6 |  | 29.1 µM [falling, partial curve, poor fit]
38 | COc1cc2nc(COc3ccccc3[N+](=O)[O-])oc(=O)c2cc1OC | 44.3 | 6.51 µM [rising, partial curve] | 6.51 µM [rising, partial curve]
39 | COc1ccc(C(C)C)cc1S(=O)(=O)N1CCN(C)CC1 | 14.6 |  | 
40 | Cc1[nH]n2cnnc2c(=O)c1Br | 8.07 |  | 16.4 µM [rising, partial curve]

Row | SMILES | cell number change [%] | AC50 [1] | AC50 [2]
41 | Fc1ccccc1N1CCN(c2nnnn2-c2ccccc2)CC1 |  |  | 4.11 µM [rising, partial curve, poor fit]
42 | Cc1ccc(C(=O)Nc2cc(Cl)ccc2-n2cncn2)o1 | 3.49 | 0.651 µM [rising, full curve, poor fit] | 0.58 µM [rising, full curve]
43 | CCOc1ccc(N(CC(=O)Nc2ccc(C)c(F)c2)C2=NC3CS(=O)(=O)CC3S2)cc1 (configuration not stated) | 21.7 |  | 
44 | CCC(=O)Nc1ccc(C(=O)COC(=O)CCN2C(=O)C3CC=CCC3C2=O)cc1 (configuration not stated) |  |  | 6.51 µM [rising, partial curve]
45 | CCOc1ccc(C(=O)NCC2CCCN2S(=O)(=O)c2cccs2)cc1 (configuration not stated) | -16.2 | 2.31 µM [rising, partial curve] | 
46 | CCCOCC1CC2(SC(=Nc3ccc(C)cc3)NC2=O)C(=O)O1 (configuration not stated) |  |  | 4.61 µM [falling, single point]
47 | CC(C)CNC(=O)c1ccccc1NC(=O)Nc1ccccc1 | 51.1 | 2.31 µM [rising, full curve] | 3.66 µM [rising, partial curve]
48 | CC(=O)c1ccccc1NC(=O)COC(=O)Cc1cccc(C(F)(F)F)c1 | 20.6 |  | 
49 | O=C(NCc1ccc(F)cc1)c1ccc2c(=O)n3c(nc2c1)CCCCC3 | 1.44 |  | 0.291 µM [rising, single point]
50 | O=C(OCn1nnc2ccccc2c1=O)c1cccc(S(=O)(=O)N2CCOCC2)c1 | -7.98 |  | 
51 | Cc1oc(-c2cccs2)nc1CS(=O)CC(=O)NCc1ccc2c(c1)OCO2 (configuration not stated) | 23.1 | 0.00651 µM [rising, full curve, poor fit] | 16.4 µM [rising, partial curve]
52 | CCc1cc(=O)oc2cc(OC(C)C(=O)NCC3CCC(C(=O)O)CC3)c(Cl)cc12 (configuration not stated) | 23.6 |  | 
53 | CN(c1cc(=O)n2ccccc2n1)C1CCCCC1 | 0.0568 |  | 0.82 µM [rising, full curve]
54 | COc1ccc(C(=O)C2CCN(C(=O)c3ccco3)CC2)cc1 | 41.1 | 29.1 µM [rising, single point] | 29.1 µM [rising, single point]
55 | COc1ccc2cc3c(N)nn(C(=O)Cc4ccc(Cl)cc4)c3nc2c1 | -39.7 | 9.2 µM [falling, partial curve, poor fit] | 0.00461 µM [rising, full curve, poor fit]
56 | CC1CCCCC12NC(=O)N(CC(=O)N1CCN(c3ncccn3)CC1)C2=O (configuration not stated) | -20.8 |  | 32.6 µM [falling, single point]
57 | CCCc1[nH]n(-c2nc3ccccc3s2)c(=O)c1C=NCC(C)C | 25.8 |  | 6.51 µM [rising, single point]
58 | O=C(c1ccc(S(=O)(=O)Nc2ccccc2Cl)cc1)N1CCOCC1 | 125 | 29.1 µM [rising, single point] | 
